Measured values as given in publication PMC9971906.
Results are given in words; binding and its absence hold for the method and conditions named. Binding seen in cells or lysates may run through a third protein. Some binding calls cover weakened binding; strength is not graded here.

Protein sequences, listed by entry. Tags and fused reporters are not part of them.
UniProt P54132: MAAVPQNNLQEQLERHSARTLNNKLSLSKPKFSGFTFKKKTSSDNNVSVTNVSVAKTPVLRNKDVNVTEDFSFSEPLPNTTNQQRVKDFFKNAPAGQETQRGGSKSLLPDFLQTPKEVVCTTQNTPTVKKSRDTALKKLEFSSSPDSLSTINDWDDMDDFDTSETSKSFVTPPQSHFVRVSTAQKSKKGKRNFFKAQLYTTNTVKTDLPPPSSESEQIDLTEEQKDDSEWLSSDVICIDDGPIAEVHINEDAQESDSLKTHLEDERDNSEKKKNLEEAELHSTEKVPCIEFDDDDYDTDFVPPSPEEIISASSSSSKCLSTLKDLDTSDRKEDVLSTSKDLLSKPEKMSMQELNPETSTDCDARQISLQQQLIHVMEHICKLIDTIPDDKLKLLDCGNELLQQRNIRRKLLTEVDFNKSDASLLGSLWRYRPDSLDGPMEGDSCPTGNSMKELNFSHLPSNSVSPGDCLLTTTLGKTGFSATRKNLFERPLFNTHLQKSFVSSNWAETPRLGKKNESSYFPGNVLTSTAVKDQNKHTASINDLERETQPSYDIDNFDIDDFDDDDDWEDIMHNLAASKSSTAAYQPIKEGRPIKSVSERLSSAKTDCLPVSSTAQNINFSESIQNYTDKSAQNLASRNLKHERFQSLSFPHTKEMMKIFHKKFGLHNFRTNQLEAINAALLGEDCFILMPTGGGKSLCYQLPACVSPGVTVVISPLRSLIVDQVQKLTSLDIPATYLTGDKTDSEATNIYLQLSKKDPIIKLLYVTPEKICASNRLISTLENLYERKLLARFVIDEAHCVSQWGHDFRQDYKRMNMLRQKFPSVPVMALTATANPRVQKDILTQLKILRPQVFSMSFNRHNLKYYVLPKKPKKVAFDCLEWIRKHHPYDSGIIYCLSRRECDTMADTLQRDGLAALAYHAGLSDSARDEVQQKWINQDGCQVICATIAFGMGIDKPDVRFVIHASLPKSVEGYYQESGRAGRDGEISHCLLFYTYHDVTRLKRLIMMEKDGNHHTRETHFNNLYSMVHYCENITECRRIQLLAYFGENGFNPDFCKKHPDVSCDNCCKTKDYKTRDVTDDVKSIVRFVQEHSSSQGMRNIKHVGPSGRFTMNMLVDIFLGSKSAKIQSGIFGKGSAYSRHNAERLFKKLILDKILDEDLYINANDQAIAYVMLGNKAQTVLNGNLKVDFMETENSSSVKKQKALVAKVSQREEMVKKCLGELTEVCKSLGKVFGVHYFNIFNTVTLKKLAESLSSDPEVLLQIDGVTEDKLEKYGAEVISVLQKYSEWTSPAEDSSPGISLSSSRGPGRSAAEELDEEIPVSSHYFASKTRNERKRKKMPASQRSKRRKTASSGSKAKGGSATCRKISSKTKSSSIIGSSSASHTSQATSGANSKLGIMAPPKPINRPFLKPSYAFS
UniProt O60934: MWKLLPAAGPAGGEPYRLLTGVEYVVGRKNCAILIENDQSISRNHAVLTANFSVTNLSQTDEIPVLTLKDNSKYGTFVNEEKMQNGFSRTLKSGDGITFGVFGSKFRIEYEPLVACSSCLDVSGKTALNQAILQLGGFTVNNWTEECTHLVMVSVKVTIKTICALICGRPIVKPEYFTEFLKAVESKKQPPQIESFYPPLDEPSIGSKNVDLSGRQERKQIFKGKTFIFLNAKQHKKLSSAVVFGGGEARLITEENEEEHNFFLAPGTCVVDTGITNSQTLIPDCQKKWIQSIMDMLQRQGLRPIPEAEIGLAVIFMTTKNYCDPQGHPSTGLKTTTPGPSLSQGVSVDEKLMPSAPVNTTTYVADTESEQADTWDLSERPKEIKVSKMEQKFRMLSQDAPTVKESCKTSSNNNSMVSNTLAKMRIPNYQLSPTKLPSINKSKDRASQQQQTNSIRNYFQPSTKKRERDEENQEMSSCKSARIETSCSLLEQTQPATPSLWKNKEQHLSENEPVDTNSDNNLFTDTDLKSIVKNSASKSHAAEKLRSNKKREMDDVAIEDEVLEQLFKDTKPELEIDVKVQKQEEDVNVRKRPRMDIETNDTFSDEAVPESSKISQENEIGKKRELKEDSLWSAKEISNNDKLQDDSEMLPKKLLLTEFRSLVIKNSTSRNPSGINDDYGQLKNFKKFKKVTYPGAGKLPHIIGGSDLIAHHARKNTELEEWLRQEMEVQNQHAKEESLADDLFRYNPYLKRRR
UniProt Q92878: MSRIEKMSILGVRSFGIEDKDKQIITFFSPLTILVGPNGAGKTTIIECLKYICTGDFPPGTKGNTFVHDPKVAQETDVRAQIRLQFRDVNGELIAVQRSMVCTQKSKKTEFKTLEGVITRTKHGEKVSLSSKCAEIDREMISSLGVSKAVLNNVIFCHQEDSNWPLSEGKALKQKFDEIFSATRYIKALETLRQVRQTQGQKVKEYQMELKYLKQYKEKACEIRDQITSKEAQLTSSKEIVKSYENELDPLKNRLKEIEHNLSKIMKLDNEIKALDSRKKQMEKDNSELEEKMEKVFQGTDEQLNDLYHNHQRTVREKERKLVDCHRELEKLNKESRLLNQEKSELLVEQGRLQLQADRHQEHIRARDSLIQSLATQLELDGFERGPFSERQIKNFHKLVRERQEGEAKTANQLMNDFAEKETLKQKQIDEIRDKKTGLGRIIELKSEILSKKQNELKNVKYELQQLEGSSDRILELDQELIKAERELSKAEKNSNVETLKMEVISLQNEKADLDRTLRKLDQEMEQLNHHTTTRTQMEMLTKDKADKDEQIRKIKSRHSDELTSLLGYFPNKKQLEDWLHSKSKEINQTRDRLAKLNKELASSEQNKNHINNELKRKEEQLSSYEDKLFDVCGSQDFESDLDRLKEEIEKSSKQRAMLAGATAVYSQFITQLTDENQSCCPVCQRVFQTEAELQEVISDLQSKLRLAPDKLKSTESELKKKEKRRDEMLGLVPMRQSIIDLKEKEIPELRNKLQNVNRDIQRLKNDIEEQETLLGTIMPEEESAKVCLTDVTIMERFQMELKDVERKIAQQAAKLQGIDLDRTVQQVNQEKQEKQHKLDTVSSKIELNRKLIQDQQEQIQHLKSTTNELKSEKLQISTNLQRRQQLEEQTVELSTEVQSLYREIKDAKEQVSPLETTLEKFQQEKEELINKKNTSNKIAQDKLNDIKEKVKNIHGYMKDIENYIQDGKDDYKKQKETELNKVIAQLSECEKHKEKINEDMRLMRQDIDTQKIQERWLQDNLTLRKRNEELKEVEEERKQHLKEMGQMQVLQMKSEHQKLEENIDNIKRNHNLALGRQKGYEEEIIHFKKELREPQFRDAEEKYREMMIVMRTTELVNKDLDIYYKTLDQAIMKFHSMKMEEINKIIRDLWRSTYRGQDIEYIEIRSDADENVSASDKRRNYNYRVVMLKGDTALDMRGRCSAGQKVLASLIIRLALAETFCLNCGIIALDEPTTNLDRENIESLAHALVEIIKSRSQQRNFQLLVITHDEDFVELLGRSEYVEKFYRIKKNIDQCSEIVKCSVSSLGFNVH

Target: bloom syndrome helicase (BLM) (human) (UniProt P54132)
Assay: pull-down; in vitro pulldown (Fig. S3A); bait, tags and conditions not told in the text shown

Substance: NBS1 (from UniProt O60934 1-754)
- binding: binds

Substance: RAD50 (from UniProt Q92878 1-1312)
- binding: binds
